Earlier results, collected in patent US20200353057A1, “REDUCING IMMUNOGENICITY TO PEGLOTICASE” (Horizon Pharma Rheumatology LLC, priority 2019, published 2020).
Some of these results come from one statement about several compounds together.

Settings: usual doses

COc1c(C)c2c(c(O)c1C/C=C(\C)CCC(=O)OCCN1CCOCC1)C(=O)OC2 [Mycophenolate mofetil, 2-morpholinoethyl (E)-6-(1,3-dihydro4-hydroxy-6-methoxy-7-methyl-3-oxo-5-isobenzofuranyl)-4-methyl-4-hexenoate]
Blood levels: < 1000 ng/mL

Sc1ncnc2nc[nH]c12 [mercaptopurine, 6-mercaptopurine]
Blood levels: < 1000 ng/mL
